Taken from: PubChem BioAssay AID1259254 (NCATS, 2017)

Screen: 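Finding genes that stop cells copying their DNA twice in one cycle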 (primary screen)
Cell system: human HCT116 colorectal cancer cells
Reagent: single siRNA against human genes
Time to read-out: 3 days
Measurement: 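Imaged Hoechst DNA stain sorts each cell into a cycle phase by DNA amount; per plate, G2 fraction set to 0% for non-targeting and 100% for GMNN siRNA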
Direction: G2 robust z-score and G2 cells, % of GMNN control: higher = more G2 cells, more excess DNA replication
Rule for the call: 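Active siRNAs have a G2 robust z of 5 or more median absolute deviations over the median, which in these data means about 38% or higher of GMNN control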
In all, the deposit lists about 59,000 reagents; below is an unselected part. Over the whole deposit, about 1,550 (2.6%) got an active call. 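G2 share is only a proxy for re-replication; each gene was hit by three separate siRNAs, and active genes were retested.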 Further read-outs or replicates are left out here. The record does not give: the amount of reagent.

Gene	PubChem SID	G2 robust z-score	G2 cells, % of GMNN control	outcome
LRRTM1	SID160765003	-0.579	-1.11	inactive
LRRTM1	SID160765004	0.293	5.03	inactive
LRRTM1	SID160765005	-0.0338	2.73	inactive
C10orf120	SID160766862	-0.695	-1.92	inactive
C10orf120	SID160766863	0.632	7.42	inactive
C10orf120	SID160766864	0.211	4.45	inactive
ALLC	SID160744448	-0.785	-2.56	inactive
ALLC	SID160744449	0.645	7.51	inactive
ALLC	SID160744450	-0.792	-2.6	inactive
HLA-DRB1	SID160775013	-0.496	-0.524	inactive
HLA-DRB1	SID160775015	2.93	23.6	inactive
HLA-DRB1	SID160775016	-0.803	-2.68	inactive
NPHP3	SID160738264	-0.942	-3.66	inactive
NPHP3	SID160738265	-0.345	0.541	inactive
NPHP3	SID160738266	-0.0896	2.34	inactive
XRN1	SID160741726	2.84	23	inactive
XRN1	SID160741727	1.27	11.9	inactive
XRN1	SID160741728	-1.26	-5.91	inactive
OR4N2	SID160725260	-0.142	1.97	inactive
OR4N2	SID160725261	0.422	5.94	inactive
OR4N2	SID160766502	1.11	10.8	inactive

5 neighbouring records already listed, for reference:
Gene	PubChem SID	G2 robust z-score	G2 cells, % of GMNN control	outcome
HLA-DRB1	SID160775016	-0.803	-2.68	inactive
NPHP3	SID160738264	-0.942	-3.66	inactive
NPHP3	SID160738265	-0.345	0.541	inactive
NPHP3	SID160738266	-0.0896	2.34	inactive
XRN1	SID160741726	2.84	23	inactive

The listing continues.
Gene	PubChem SID	G2 robust z-score	G2 cells, % of GMNN control	outcome
STXBP1	SID160717513	-0.177	1.72	inactive
STXBP1	SID160717514	1.9	16.3	inactive
STXBP1	SID160717515	-0.447	-0.174	inactive
NAT16	SID160765449	-0.0948	2.3	inactive
NAT16	SID160765450	-0.557	-0.95	inactive
NAT16	SID160765451	-0.279	1	inactive
JAML	SID160732374	-0.553	-0.921	inactive
JAML	SID160755813	-0.0281	2.77	inactive
JAML	SID160755814	-0.991	-4.01	inactive
PPP1R3D	SID160714774	-1.36	-6.6	inactive
PPP1R3D	SID160714775	2.41	20	inactive
PPP1R3D	SID160714777	-0.509	-0.616	inactive
DLGAP3	SID160746893	-0.00383	2.94	inactive
DLGAP3	SID160746894	4.46	34.4	inactive
DLGAP3	SID160746895	0.642	7.48	inactive
INCA1	SID160765813	5.34	40.5	active
INCA1	SID160765814	-0.325	0.679	inactive
INCA1	SID160765815	1.04	10.3	inactive
AKR1B15	SID160767978	1.45	13.2	inactive
AKR1B15	SID160767979	1.12	10.8	inactive
AKR1B15	SID160767980	0.481	6.35	inactive
OSTC	SID160746873	-0.0543	2.59	inactive
OSTC	SID160746874	-0.656	-1.65	inactive
OSTC	SID160746875	-0.116	2.15	inactive
RNF17	SID160744915	0.299	5.07	inactive
RNF17	SID160744916	-0.132	2.04	inactive
RNF17	SID160744917	-1.18	-5.32	inactive
